Measured values taken from the supplement of paper PMC12823440, “Inhibitors supercharge kinase turnover through native proteolytic circuits” (Nature, 2025).
Where a name gives a salt, the structure may show the parent alone. The list shows a part of the results. The calls rarely recur for the same compound in another form.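 Kinases were expressed as nanoluciferase fusions in K562 cells and luminescence was read every 4 h between 2 and 18 h as percent of control, DMSO set to 100% and a positive control to 0%. A time point counts as decreased when the signal drops significantly (2 sigma). The hit call is the authors' own, does not follow from the count of time points alone, and its rule is not shown.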

Sequences of proteins named here, by UniProt entry; tags and fusion partners are left off. A change or cut given only in a name is not applied to a line headed by its entry.
UniProt Q15208: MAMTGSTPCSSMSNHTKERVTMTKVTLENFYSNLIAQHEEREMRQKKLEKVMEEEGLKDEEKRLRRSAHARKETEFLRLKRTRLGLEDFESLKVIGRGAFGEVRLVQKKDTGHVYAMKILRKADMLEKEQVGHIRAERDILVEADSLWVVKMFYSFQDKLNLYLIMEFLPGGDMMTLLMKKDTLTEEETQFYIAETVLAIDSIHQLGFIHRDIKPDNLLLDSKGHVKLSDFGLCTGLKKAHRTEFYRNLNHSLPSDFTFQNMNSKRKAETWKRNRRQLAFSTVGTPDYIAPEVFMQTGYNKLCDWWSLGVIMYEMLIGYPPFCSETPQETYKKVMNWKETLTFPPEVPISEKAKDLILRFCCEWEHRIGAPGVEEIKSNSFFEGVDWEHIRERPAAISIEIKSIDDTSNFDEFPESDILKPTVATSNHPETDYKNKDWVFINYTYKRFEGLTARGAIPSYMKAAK
UniProt P42680: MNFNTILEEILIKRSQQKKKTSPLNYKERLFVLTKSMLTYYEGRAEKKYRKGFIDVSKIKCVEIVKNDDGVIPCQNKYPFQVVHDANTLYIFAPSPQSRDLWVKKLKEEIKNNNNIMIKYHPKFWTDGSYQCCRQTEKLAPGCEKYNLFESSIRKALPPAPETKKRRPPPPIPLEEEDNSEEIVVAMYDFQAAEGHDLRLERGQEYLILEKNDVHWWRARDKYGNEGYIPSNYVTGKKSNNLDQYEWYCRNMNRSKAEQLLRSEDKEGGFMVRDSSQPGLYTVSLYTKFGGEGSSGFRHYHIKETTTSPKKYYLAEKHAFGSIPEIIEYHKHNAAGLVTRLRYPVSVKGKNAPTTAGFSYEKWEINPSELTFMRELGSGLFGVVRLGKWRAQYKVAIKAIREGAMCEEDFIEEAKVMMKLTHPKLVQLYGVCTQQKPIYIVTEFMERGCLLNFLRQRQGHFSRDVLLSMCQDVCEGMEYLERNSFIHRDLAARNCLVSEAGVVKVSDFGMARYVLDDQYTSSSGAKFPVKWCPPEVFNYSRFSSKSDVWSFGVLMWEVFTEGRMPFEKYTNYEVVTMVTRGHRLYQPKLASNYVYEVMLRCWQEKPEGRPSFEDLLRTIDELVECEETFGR
UniProt P29597: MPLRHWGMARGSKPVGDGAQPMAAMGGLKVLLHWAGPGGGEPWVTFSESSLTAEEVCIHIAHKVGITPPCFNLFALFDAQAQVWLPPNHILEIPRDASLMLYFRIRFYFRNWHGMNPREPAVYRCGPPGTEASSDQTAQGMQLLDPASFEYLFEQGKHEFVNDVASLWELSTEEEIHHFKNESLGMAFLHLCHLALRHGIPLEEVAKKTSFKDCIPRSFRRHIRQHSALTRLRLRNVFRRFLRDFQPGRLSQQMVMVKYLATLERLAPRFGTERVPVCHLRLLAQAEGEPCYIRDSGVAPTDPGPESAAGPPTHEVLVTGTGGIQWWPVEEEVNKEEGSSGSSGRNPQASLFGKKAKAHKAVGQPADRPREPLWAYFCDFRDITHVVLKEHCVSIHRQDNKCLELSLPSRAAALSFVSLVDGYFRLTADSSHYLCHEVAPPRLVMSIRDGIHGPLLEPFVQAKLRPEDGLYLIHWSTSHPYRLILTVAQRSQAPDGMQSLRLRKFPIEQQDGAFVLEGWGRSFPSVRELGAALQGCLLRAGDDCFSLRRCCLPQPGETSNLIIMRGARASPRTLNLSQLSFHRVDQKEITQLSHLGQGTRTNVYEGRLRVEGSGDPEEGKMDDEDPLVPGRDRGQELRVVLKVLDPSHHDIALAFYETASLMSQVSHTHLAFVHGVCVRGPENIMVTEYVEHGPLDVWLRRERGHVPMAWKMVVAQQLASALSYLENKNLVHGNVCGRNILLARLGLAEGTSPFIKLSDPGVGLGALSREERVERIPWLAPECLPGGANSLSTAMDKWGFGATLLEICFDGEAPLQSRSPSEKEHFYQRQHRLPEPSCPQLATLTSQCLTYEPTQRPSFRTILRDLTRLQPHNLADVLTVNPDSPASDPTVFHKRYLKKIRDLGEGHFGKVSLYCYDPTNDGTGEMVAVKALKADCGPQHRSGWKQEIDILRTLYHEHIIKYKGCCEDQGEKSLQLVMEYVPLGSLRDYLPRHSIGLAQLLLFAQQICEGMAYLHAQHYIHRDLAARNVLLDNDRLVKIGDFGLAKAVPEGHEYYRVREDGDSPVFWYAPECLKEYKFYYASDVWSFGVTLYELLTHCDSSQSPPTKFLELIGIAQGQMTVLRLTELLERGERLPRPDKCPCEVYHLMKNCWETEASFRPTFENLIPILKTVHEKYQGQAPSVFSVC
UniProt Q6PHR2: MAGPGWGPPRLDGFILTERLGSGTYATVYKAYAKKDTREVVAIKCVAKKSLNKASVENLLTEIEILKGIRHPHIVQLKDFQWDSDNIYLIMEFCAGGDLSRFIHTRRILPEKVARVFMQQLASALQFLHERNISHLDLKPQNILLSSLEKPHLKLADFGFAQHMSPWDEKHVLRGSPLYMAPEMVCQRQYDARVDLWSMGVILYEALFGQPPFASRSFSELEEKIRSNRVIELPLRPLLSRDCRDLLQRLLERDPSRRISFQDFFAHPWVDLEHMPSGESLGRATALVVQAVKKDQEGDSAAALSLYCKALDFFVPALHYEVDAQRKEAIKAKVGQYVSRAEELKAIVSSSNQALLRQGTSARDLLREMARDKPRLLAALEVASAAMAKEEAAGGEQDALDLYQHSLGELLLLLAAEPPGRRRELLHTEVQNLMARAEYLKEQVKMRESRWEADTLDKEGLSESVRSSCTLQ
UniProt P07947, whole entry, looked up: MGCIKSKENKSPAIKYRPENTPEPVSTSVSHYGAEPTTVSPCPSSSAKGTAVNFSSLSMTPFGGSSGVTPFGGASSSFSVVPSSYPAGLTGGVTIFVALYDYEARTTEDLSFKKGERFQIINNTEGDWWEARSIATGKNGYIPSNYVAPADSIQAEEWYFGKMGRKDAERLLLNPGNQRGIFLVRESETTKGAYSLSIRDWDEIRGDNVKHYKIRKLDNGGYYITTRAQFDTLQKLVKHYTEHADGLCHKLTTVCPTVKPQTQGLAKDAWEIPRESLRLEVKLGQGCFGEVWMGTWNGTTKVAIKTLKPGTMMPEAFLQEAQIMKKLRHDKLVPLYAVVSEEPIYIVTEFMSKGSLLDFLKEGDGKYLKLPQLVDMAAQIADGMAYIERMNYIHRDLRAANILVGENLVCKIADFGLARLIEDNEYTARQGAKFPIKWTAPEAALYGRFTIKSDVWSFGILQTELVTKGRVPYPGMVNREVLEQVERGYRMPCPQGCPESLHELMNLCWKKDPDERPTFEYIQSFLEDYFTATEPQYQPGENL
UniProt P43403: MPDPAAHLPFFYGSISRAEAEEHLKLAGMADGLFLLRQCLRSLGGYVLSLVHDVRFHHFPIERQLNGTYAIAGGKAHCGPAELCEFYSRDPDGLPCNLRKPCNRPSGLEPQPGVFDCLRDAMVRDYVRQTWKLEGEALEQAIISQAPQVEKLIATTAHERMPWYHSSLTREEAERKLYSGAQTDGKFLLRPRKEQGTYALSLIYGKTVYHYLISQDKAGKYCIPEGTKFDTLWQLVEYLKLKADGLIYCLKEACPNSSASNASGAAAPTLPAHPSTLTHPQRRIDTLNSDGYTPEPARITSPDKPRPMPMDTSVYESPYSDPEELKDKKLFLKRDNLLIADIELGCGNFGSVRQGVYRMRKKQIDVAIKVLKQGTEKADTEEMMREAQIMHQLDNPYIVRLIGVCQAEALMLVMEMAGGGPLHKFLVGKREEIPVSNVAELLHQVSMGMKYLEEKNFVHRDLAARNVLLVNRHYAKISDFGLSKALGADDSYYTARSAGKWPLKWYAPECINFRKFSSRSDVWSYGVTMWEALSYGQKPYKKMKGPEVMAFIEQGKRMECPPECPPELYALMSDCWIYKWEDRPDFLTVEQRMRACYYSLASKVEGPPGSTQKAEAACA
UniProt P11802: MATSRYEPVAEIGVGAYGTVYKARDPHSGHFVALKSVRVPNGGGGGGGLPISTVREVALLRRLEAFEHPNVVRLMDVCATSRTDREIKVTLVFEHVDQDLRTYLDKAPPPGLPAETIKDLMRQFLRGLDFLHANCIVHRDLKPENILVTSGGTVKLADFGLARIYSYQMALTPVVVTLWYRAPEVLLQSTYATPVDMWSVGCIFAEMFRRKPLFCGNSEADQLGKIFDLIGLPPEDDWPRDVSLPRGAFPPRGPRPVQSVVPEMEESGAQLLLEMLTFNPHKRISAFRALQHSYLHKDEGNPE
UniProt P50613: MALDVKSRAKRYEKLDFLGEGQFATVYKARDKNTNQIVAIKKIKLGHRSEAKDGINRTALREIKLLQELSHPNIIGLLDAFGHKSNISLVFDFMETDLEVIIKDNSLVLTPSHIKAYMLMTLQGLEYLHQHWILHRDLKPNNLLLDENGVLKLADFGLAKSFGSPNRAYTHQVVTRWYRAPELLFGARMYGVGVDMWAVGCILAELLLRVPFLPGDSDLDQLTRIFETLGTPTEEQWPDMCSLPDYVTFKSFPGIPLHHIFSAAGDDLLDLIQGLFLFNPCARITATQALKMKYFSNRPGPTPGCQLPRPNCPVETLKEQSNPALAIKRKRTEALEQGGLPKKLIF

How the values were obtained:
Conditions in all cases: K562, 2-18 h
STK38 = STK38 (UniProt Q15208); assay: kinase-Nluc reporter destabilization hit call (1 = scored as downregulated) (binary); higher = compound decreases kinase abundance
SYK = SYK (UniProt P43405); assay: as above
TEC = TEC (UniProt P42680); assay: as above
TYK2 = TYK2 (UniProt P29597); assay: as above
ULK3 = ULK3 (UniProt Q6PHR2); assay: as above
YES1 = YES1 (UniProt P07947); assay: as above
ZAK = ZAK (UniProt Q9NYL2); assay: as above
ZAP70 = ZAP70 (UniProt P43403); assay: as above
CDK4 = CDK4 (UniProt P11802); assay: number of time points (of 4; 2 h point missing) at which kinase-Nluc abundance scored as decreased, DMSO-normalised (count); higher = more persistent destabilization
CDK7 = CDK7 (UniProt P50613); assay: as above

Cc1nc(Nc2ncc(C(=O)Nc3c(C)cccc3Cl)s2)cc(N2CCN(CCO)CC2)n1 [Dasatinib]
0: number of time points (CDK4; 2.5 µM)
2: number of time points (CDK7; 2.5 µM)
inactive: kinase-Nluc reporter destabilization hit call (STK38; 2.5 µM) 0 | kinase-Nluc reporter destabilization hit call (SYK; 2.5 µM) 0 | kinase-Nluc reporter destabilization hit call (TEC; 2.5 µM) 0 | kinase-Nluc reporter destabilization hit call (TYK2; 2.5 µM) 0 | kinase-Nluc reporter destabilization hit call (ULK3; 2.5 µM) 0 | kinase-Nluc reporter destabilization hit call (YES1; 2.5 µM) 0 | kinase-Nluc reporter destabilization hit call (ZAK; 2.5 µM) 0 | kinase-Nluc reporter destabilization hit call (ZAP70; 2.5 µM) 0

O=C(O)c1ccc(Nc2ncc3c(n2)-c2ccc(Cl)cc2C(c2c(F)cccc2F)=NC3)cc1
inactive: kinase-Nluc reporter destabilization hit call (STK38; 10 µM) 0 | kinase-Nluc reporter destabilization hit call (SYK; 10 µM) 0 | kinase-Nluc reporter destabilization hit call (TEC; 10 µM) 0 | kinase-Nluc reporter destabilization hit call (TYK2; 10 µM) 0 | kinase-Nluc reporter destabilization hit call (ULK3; 10 µM) 0 | kinase-Nluc reporter destabilization hit call (YES1; 10 µM) 0 | kinase-Nluc reporter destabilization hit call (ZAK; 10 µM) 0 | kinase-Nluc reporter destabilization hit call (ZAP70; 10 µM) 0
0: number of time points (CDK4; 10 µM) | number of time points (CDK7; 10 µM)

C=CC(=O)N1C[C@@H](Nc2ncnc3[nH]ccc23)CC[C@H]1C [(2R,5S)-Ritlecitinib]
inactive: kinase-Nluc reporter destabilization hit call (STK38; 10 µM) 0 | kinase-Nluc reporter destabilization hit call (SYK; 10 µM) 0 | kinase-Nluc reporter destabilization hit call (TEC; 10 µM) 0 | kinase-Nluc reporter destabilization hit call (TYK2; 10 µM) 0 | kinase-Nluc reporter destabilization hit call (ULK3; 10 µM) 0 | kinase-Nluc reporter destabilization hit call (YES1; 10 µM) 0 | kinase-Nluc reporter destabilization hit call (ZAK; 10 µM) 0 | kinase-Nluc reporter destabilization hit call (ZAP70; 10 µM) 0
0: number of time points (CDK4; 10 µM) | number of time points (CDK7; 10 µM)

CC#CC(=O)N1CCC[C@H]1c1nc(-c2ccc(C(=O)Nc3ccccn3)cc2)c2c(N)nccn12 [Acalabrutinib]
inactive: kinase-Nluc reporter destabilization hit call (STK38; 10 µM) 0 | kinase-Nluc reporter destabilization hit call (SYK; 10 µM) 0 | kinase-Nluc reporter destabilization hit call (TEC; 10 µM) 0 | kinase-Nluc reporter destabilization hit call (TYK2; 10 µM) 0 | kinase-Nluc reporter destabilization hit call (ULK3; 10 µM) 0 | kinase-Nluc reporter destabilization hit call (YES1; 10 µM) 0 | kinase-Nluc reporter destabilization hit call (ZAK; 10 µM) 0 | kinase-Nluc reporter destabilization hit call (ZAP70; 10 µM) 0
0: number of time points (CDK4; 10 µM) | number of time points (CDK7; 10 µM)

O=S(=O)(c1cccc2c(O)nccc12)N1CCCNCC1 [Hydroxyfasudil (hydrochloride)]
inactive: kinase-Nluc reporter destabilization hit call (STK38; 10 µM) 0 | kinase-Nluc reporter destabilization hit call (SYK; 10 µM) 0 | kinase-Nluc reporter destabilization hit call (TEC; 10 µM) 0 | kinase-Nluc reporter destabilization hit call (TYK2; 10 µM) 0 | kinase-Nluc reporter destabilization hit call (ULK3; 10 µM) 0 | kinase-Nluc reporter destabilization hit call (YES1; 10 µM) 0 | kinase-Nluc reporter destabilization hit call (ZAK; 10 µM) 0 | kinase-Nluc reporter destabilization hit call (ZAP70; 10 µM) 0
0: number of time points (CDK4; 10 µM) | number of time points (CDK7; 10 µM)

CCn1c(=O)c(-c2cc(NC(=O)Nc3ccccc3)c(F)cc2Br)cc2cnc(NC)cc21 [Ripretinib]
0: number of time points (CDK4; 10 µM)
inactive: kinase-Nluc reporter destabilization hit call (STK38; 10 µM) 0 | kinase-Nluc reporter destabilization hit call (SYK; 10 µM) 0 | kinase-Nluc reporter destabilization hit call (TEC; 10 µM) 0 | kinase-Nluc reporter destabilization hit call (TYK2; 10 µM) 0 | kinase-Nluc reporter destabilization hit call (ULK3; 10 µM) 0 | kinase-Nluc reporter destabilization hit call (YES1; 10 µM) 0 | kinase-Nluc reporter destabilization hit call (ZAK; 10 µM) 0 | kinase-Nluc reporter destabilization hit call (ZAP70; 10 µM) 0
3: number of time points (CDK7; 10 µM)

CC1(C)CNc2cc(NC(=O)c3cccnc3NCc3ccncc3)ccc21 [Motesanib]
0: number of time points (CDK4; 2.5 µM) | number of time points (CDK7; 2.5 µM)
inactive: kinase-Nluc reporter destabilization hit call (STK38; 2.5 µM) 0 | kinase-Nluc reporter destabilization hit call (SYK; 2.5 µM) 0 | kinase-Nluc reporter destabilization hit call (TEC; 2.5 µM) 0 | kinase-Nluc reporter destabilization hit call (TYK2; 2.5 µM) 0 | kinase-Nluc reporter destabilization hit call (ULK3; 2.5 µM) 0 | kinase-Nluc reporter destabilization hit call (YES1; 2.5 µM) 0 | kinase-Nluc reporter destabilization hit call (ZAK; 2.5 µM) 0 | kinase-Nluc reporter destabilization hit call (ZAP70; 2.5 µM) 0

CC(C)n1nc(-c2cc3cc(O)ccc3[nH]2)c2c(N)ncnc21 [Torkinib]
inactive: kinase-Nluc reporter destabilization hit call (STK38; 2.5 µM) 0 | kinase-Nluc reporter destabilization hit call (SYK; 2.5 µM) 0 | kinase-Nluc reporter destabilization hit call (TEC; 2.5 µM) 0 | kinase-Nluc reporter destabilization hit call (TYK2; 2.5 µM) 0 | kinase-Nluc reporter destabilization hit call (ULK3; 2.5 µM) 0 | kinase-Nluc reporter destabilization hit call (YES1; 2.5 µM) 0 | kinase-Nluc reporter destabilization hit call (ZAK; 2.5 µM) 0 | kinase-Nluc reporter destabilization hit call (ZAP70; 2.5 µM) 0
0: number of time points (CDK4; 2.5 µM) | number of time points (CDK7; 2.5 µM)

COc1ccc(-c2c[nH]c3nccc(-c4ccsc4)c23)c(OC)c1
0: number of time points (CDK4; 10 µM)
1: number of time points (CDK7; 10 µM)
inactive: kinase-Nluc reporter destabilization hit call (STK38; 10 µM) 0 | kinase-Nluc reporter destabilization hit call (SYK; 10 µM) 0 | kinase-Nluc reporter destabilization hit call (TEC; 10 µM) 0 | kinase-Nluc reporter destabilization hit call (TYK2; 10 µM) 0 | kinase-Nluc reporter destabilization hit call (ULK3; 10 µM) 0 | kinase-Nluc reporter destabilization hit call (YES1; 10 µM) 0 | kinase-Nluc reporter destabilization hit call (ZAK; 10 µM) 0 | kinase-Nluc reporter destabilization hit call (ZAP70; 10 µM) 0

Cc1cn(-c2cc(NC(=O)c3ccc(C)c(Nc4nccc(-c5cccnc5)n4)c3)cc(C(F)(F)F)c2)cn1 [Nilotinib]
3: number of time points (CDK7; 2.5 µM)
1: number of time points (CDK4; 2.5 µM)
inactive: kinase-Nluc reporter destabilization hit call (STK38; 2.5 µM) 0 | kinase-Nluc reporter destabilization hit call (SYK; 2.5 µM) 0 | kinase-Nluc reporter destabilization hit call (TEC; 2.5 µM) 0 | kinase-Nluc reporter destabilization hit call (TYK2; 2.5 µM) 0 | kinase-Nluc reporter destabilization hit call (ULK3; 2.5 µM) 0 | kinase-Nluc reporter destabilization hit call (YES1; 2.5 µM) 0 | kinase-Nluc reporter destabilization hit call (ZAK; 2.5 µM) 0 | kinase-Nluc reporter destabilization hit call (ZAP70; 2.5 µM) 0

Nc1ncnc2c1c(-c1cnc3[nH]ccc3c1)nn2C1CCCC1
0: number of time points (CDK4; 2.5 µM) | number of time points (CDK7; 2.5 µM)
inactive: kinase-Nluc reporter destabilization hit call (STK38; 2.5 µM) 0 | kinase-Nluc reporter destabilization hit call (SYK; 2.5 µM) 0 | kinase-Nluc reporter destabilization hit call (TEC; 2.5 µM) 0 | kinase-Nluc reporter destabilization hit call (TYK2; 2.5 µM) 0 | kinase-Nluc reporter destabilization hit call (ULK3; 2.5 µM) 0 | kinase-Nluc reporter destabilization hit call (YES1; 2.5 µM) 0 | kinase-Nluc reporter destabilization hit call (ZAK; 2.5 µM) 0 | kinase-Nluc reporter destabilization hit call (ZAP70; 2.5 µM) 0

O=c1ncn2nc(Sc3ccc(F)cc3F)ccc2c1-c1c(Cl)cccc1Cl [Neflamapimod]
inactive: kinase-Nluc reporter destabilization hit call (STK38; 10 µM) 0 | kinase-Nluc reporter destabilization hit call (SYK; 10 µM) 0 | kinase-Nluc reporter destabilization hit call (TEC; 10 µM) 0 | kinase-Nluc reporter destabilization hit call (TYK2; 10 µM) 0 | kinase-Nluc reporter destabilization hit call (ULK3; 10 µM) 0 | kinase-Nluc reporter destabilization hit call (YES1; 10 µM) 0 | kinase-Nluc reporter destabilization hit call (ZAK; 10 µM) 0 | kinase-Nluc reporter destabilization hit call (ZAP70; 10 µM) 0
0: number of time points (CDK4; 10 µM) | number of time points (CDK7; 10 µM)

CNC(=O)c1cc(Oc2ccc(NC(=O)Nc3ccc(Cl)c(C(F)(F)F)c3)cc2)ccn1 [Sorafenib (Tosylate)]
0: number of time points (CDK4; 10 µM) | number of time points (CDK7; 10 µM)
inactive: kinase-Nluc reporter destabilization hit call (STK38; 10 µM) 0 | kinase-Nluc reporter destabilization hit call (SYK; 10 µM) 0 | kinase-Nluc reporter destabilization hit call (TEC; 10 µM) 0 | kinase-Nluc reporter destabilization hit call (TYK2; 10 µM) 0 | kinase-Nluc reporter destabilization hit call (ULK3; 10 µM) 0 | kinase-Nluc reporter destabilization hit call (YES1; 10 µM) 0 | kinase-Nluc reporter destabilization hit call (ZAK; 10 µM) 0 | kinase-Nluc reporter destabilization hit call (ZAP70; 10 µM) 0

C=CC(=O)Nc1cc2c(Nc3ccc(F)c(Cl)c3)ncnc2cc1OCCCN1CCOCC1 [Canertinib (dihydrochloride)]
inactive: kinase-Nluc reporter destabilization hit call (STK38; 2.5 µM) 0 | kinase-Nluc reporter destabilization hit call (SYK; 2.5 µM) 0 | kinase-Nluc reporter destabilization hit call (TEC; 2.5 µM) 0 | kinase-Nluc reporter destabilization hit call (TYK2; 2.5 µM) 0 | kinase-Nluc reporter destabilization hit call (ULK3; 2.5 µM) 0 | kinase-Nluc reporter destabilization hit call (YES1; 2.5 µM) 0 | kinase-Nluc reporter destabilization hit call (ZAK; 2.5 µM) 0 | kinase-Nluc reporter destabilization hit call (ZAP70; 2.5 µM) 0
0: number of time points (CDK4; 2.5 µM) | number of time points (CDK7; 2.5 µM)

O=C(Nc1cccc(Cl)c1)Nc1ncc(CCNc2ncnc3ccsc23)s1 [SNS-314 (mesylate)]
inactive: kinase-Nluc reporter destabilization hit call (STK38; 10 µM) 0 | kinase-Nluc reporter destabilization hit call (SYK; 10 µM) 0 | kinase-Nluc reporter destabilization hit call (TEC; 10 µM) 0 | kinase-Nluc reporter destabilization hit call (TYK2; 10 µM) 0 | kinase-Nluc reporter destabilization hit call (ULK3; 10 µM) 0 | kinase-Nluc reporter destabilization hit call (YES1; 10 µM) 0 | kinase-Nluc reporter destabilization hit call (ZAK; 10 µM) 0 | kinase-Nluc reporter destabilization hit call (ZAP70; 10 µM) 0
3: number of time points (CDK7; 10 µM)
0: number of time points (CDK4; 10 µM)

Nc1nc(Nc2ccc(S(N)(=O)=O)cc2)nn1C(=O)c1c(F)cccc1F
0: number of time points (CDK4; 2.5 µM) | number of time points (CDK7; 2.5 µM)
inactive: kinase-Nluc reporter destabilization hit call (STK38; 2.5 µM) 0 | kinase-Nluc reporter destabilization hit call (SYK; 2.5 µM) 0 | kinase-Nluc reporter destabilization hit call (TEC; 2.5 µM) 0 | kinase-Nluc reporter destabilization hit call (TYK2; 2.5 µM) 0 | kinase-Nluc reporter destabilization hit call (ULK3; 2.5 µM) 0 | kinase-Nluc reporter destabilization hit call (YES1; 2.5 µM) 0 | kinase-Nluc reporter destabilization hit call (ZAK; 2.5 µM) 0 | kinase-Nluc reporter destabilization hit call (ZAP70; 2.5 µM) 0

Among those listed so far, these contain a thiophene ring, fused or not.
COc1ccc(-c2c[nH]c3nccc(-c4ccsc4)c23)c(OC)c1
0: number of time points (CDK4; 10 µM)
1: number of time points (CDK7; 10 µM)
inactive: kinase-Nluc reporter destabilization hit call (STK38; 10 µM) 0 | kinase-Nluc reporter destabilization hit call (SYK; 10 µM) 0 | kinase-Nluc reporter destabilization hit call (TEC; 10 µM) 0 | kinase-Nluc reporter destabilization hit call (TYK2; 10 µM) 0 | kinase-Nluc reporter destabilization hit call (ULK3; 10 µM) 0 | kinase-Nluc reporter destabilization hit call (YES1; 10 µM) 0 | kinase-Nluc reporter destabilization hit call (ZAK; 10 µM) 0 | kinase-Nluc reporter destabilization hit call (ZAP70; 10 µM) 0

O=C(Nc1cccc(Cl)c1)Nc1ncc(CCNc2ncnc3ccsc23)s1 [SNS-314 (mesylate)]
inactive: kinase-Nluc reporter destabilization hit call (STK38; 10 µM) 0 | kinase-Nluc reporter destabilization hit call (SYK; 10 µM) 0 | kinase-Nluc reporter destabilization hit call (TEC; 10 µM) 0 | kinase-Nluc reporter destabilization hit call (TYK2; 10 µM) 0 | kinase-Nluc reporter destabilization hit call (ULK3; 10 µM) 0 | kinase-Nluc reporter destabilization hit call (YES1; 10 µM) 0 | kinase-Nluc reporter destabilization hit call (ZAK; 10 µM) 0 | kinase-Nluc reporter destabilization hit call (ZAP70; 10 µM) 0
3: number of time points (CDK7; 10 µM)
0: number of time points (CDK4; 10 µM)
